# These are yes or no findings as the source states them, for the method shown. In cells and extracts the contact can be indirect. A yes stands for co-enrichment or nearness to the bait. Other partners may have been found. No binding means not detected with the bait.
# Amino acid sequences for entries named in this document (tags omitted).
# UniProt Q8VDD5: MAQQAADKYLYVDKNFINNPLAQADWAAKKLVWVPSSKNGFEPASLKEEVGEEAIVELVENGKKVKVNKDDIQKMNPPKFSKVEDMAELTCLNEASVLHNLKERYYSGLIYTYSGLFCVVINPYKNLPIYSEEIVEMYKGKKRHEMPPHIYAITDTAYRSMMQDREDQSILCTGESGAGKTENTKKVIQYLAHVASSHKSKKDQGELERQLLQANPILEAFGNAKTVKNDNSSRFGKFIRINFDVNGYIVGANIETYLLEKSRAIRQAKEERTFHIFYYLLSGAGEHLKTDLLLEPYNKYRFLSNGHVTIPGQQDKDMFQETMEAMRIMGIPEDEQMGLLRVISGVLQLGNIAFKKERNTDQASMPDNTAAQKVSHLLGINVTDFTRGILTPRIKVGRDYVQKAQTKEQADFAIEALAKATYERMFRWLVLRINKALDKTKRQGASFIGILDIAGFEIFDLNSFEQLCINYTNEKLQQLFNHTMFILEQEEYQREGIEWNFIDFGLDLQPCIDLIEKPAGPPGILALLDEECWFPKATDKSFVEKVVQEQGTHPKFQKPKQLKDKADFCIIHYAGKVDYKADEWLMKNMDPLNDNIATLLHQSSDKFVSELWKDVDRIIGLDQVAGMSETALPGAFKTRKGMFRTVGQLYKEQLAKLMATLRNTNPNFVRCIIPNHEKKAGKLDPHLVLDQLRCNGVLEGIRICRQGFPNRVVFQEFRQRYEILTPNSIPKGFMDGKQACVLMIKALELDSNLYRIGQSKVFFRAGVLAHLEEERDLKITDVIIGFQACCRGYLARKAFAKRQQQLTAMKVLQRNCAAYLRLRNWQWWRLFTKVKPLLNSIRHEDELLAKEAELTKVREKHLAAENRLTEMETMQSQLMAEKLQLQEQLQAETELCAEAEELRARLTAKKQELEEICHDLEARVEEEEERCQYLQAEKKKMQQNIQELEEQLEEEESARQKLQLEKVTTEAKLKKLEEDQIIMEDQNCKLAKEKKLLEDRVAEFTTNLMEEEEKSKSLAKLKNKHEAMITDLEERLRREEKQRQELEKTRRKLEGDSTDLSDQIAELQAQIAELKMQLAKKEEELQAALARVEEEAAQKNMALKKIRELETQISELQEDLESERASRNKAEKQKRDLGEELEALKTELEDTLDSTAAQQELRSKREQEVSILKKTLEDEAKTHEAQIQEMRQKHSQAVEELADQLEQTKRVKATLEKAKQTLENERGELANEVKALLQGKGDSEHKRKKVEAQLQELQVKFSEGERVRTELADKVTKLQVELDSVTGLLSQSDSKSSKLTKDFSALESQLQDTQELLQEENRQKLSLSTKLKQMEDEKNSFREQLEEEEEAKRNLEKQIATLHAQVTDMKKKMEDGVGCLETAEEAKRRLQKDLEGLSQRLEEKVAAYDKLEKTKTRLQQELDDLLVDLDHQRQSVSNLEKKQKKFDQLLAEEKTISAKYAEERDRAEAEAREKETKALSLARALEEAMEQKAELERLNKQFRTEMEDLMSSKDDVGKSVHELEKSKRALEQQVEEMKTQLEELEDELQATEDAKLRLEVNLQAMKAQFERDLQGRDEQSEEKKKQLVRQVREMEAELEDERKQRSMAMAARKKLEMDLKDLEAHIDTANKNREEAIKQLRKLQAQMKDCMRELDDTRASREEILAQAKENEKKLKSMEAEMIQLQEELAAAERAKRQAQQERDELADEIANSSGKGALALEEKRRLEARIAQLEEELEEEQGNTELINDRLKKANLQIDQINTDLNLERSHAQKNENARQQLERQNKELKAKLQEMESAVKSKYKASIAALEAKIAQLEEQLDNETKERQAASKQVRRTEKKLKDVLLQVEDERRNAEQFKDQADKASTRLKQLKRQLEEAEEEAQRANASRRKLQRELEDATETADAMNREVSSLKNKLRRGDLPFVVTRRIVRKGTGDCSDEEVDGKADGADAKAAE
# UniProt P42337: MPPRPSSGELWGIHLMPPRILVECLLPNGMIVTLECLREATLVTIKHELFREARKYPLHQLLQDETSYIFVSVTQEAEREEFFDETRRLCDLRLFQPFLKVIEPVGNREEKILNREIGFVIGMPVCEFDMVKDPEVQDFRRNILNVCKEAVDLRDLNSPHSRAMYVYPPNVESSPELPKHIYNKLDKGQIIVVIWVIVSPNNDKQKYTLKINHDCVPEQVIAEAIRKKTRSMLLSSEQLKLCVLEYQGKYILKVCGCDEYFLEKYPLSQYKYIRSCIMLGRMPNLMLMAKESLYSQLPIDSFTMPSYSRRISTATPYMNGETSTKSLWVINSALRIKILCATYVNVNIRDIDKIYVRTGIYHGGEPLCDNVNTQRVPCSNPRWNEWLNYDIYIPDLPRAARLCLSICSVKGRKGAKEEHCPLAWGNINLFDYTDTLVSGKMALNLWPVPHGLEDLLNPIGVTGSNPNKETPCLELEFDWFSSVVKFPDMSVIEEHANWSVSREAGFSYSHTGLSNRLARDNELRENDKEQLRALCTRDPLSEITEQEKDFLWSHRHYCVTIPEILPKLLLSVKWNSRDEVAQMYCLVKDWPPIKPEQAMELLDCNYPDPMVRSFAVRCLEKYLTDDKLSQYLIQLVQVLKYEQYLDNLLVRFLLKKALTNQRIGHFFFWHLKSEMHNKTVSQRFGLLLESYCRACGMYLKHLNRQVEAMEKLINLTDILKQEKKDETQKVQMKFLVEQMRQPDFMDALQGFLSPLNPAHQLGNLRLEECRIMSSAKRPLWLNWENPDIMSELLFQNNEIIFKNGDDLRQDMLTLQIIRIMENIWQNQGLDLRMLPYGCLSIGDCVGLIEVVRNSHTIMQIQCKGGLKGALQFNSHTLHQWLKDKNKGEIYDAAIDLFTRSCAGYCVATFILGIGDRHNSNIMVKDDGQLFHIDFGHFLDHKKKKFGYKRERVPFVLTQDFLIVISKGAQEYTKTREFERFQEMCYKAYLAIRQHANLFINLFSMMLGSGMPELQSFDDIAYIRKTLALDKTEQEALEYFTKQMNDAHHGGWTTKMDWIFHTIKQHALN
# Biological target: non-muscle myosin IIA (mouse (endogenous in Trp53(-/-) murine GBM cells)) (UniProt Q8VDD5)
# Assay: affinity purification with mass spectrometry
substance,measurement,value
α subunit of PI3 Kinase (PIK3CA) (from UniProt P42337 1-1068),binding,no binding
